Data reported in PubChem BioAssay AID493014 (National Center for Advancing Translational Sciences (NCATS), 2011).
The campaign covered roughly 340,000 compounds. About 170 (0.05%) were called active. Inconclusive means that the source gave no clear call. Such entries were picked first, then a sample of the others. Calls come from the whole dose curve; as a rule, active = well fitted inhibition curve with a large enough effect in the signal ratio, with a control signal flat (not every such curve was filed as active); inconclusive = small, poorly fitted or top-dose-only effect, or effect the other way, or a change in a side signal; inactive = flat fitted curve, though single readings scatter; the % refers to the signal ratio. A potency beside an inconclusive call is a rough fit, not a confirmed value.

Test: qHTS Assay to Find Inhibitors of Chronic Active B-Cell Receptor Signaling;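 for activity change, negative = inhibition: plate controls were basal doxycycline-induced cells for no effect and cells given 10 µM MG132 for full effect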
Details: ABC-DLBCL IkBa-CBG/CBR reporter, luminescence ratio (green luciferase fused to IkBa over red control in TMD8 lymphoma cells), 4 h; activity change, negative = inhibition: at 46.1 µM (top of the series) unless noted
Procedure, shortened: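 Cell line TMD8 (human ABC DLBCL), stably expressing tet-inducible CBG68-IkBa fusion and CBR; IMDM/0.5% FBS; cpd up to 46 uM; dox induction, 4 h, 37C/5% CO2; dual luminescence; green/red ratio; MG132 control.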
Potency is the fitted concentration of half-maximal effect.

SMILES | activity change, negative = inhibition | Potency
CSc1ccc(CN2CCCC(CNC(=O)c3ccc(F)cc3)C2)cc1 (stereo not given) | inactive: -6.03% | 
COc1cc2c(cc1OC)/C(=C/C#N)NC(C)(C)C2 |  | inconclusive: 4.47 µM [falling, partial curve, poor fit]
CC(=O)Nc1ccc(/C=C2/Sc3ccccc3C2=O)cc1 |  | inconclusive: 3.55 µM [falling, partial curve, poor fit]
COc1ccc(C(=O)NC(=S)Nc2ccc(Cc3ccncc3)cc2)cc1 | inactive: -19.1% | 
Cc1ccc2nc3sc(C(=O)Nc4ccc(N5CCOCC5)cc4)c(N)c3cc2c1 |  | inconclusive: 1.84 µM [rising, full curve, poor fit]
O=C(CN1CCc2cc3c(cc2C1)OCCCO3)Nc1cccc([N+](=O)[O-])c1 | inconclusive: -6.48% | 
O=C(CCCN1C(=O)/C(=C/c2ccccc2Cl)SC1=S)Nc1ccccn1 |  | inconclusive: 14.6 µM [falling, partial curve, poor fit]
NS(=O)(=O)c1ccc(NC(=O)CN2CCN(S(=O)(=O)c3ccc(F)cc3)CC2)cc1 | inactive: -4.33% | 
CC(=O)c1ccc(C(=O)N2CCCC(CO)(Cc3ccccc3C)C2)s1 (stereo not given) | inconclusive: -3.47% | 
O=C(Nc1ncn[nH]1)c1ccc(Cl)cc1Cl | inconclusive: 5.15% | 
CC(NC(=O)c1ccccc1)C(=O)OCC(=O)N1c2ccccc2Sc2ccccc21 (stereo not given) | inconclusive: -2.72% | 
CC1=NN(c2ccccc2)C(=O)C1/C=C1\NC(=S)NC1=O (stereo not given) |  | inconclusive: 25.1 µM [rising, single point]
Cc1[nH]c2ccc(C(=O)Nc3ccncc3)cc2c1C | inconclusive: -9.96% | 
CCCSc1ncc(Cl)c(C(=O)Nc2ccc(S(=O)(=O)N3CC(C)OC(C)C3)cc2)n1 (stereo not given) | inconclusive: 3.88% | 
Cc1ccn2c(CNCC3COCCO3)c(C(=O)N3CCCCCC3)nc2c1 (stereo not given) | inconclusive: 4.96% | 
CSc1ncc(Cl)c(C(=O)C(C#N)c2nc3c(C)cc(C)cc3c(=O)[nH]2)n1 (stereo not given) | inactive: 6.53% | 
CCc1ccc(NC(=O)c2ccc3ncsc3c2)cc1 |  | inconclusive: 12.6 µM [falling, partial curve]
CSCC[C@H](NC(=O)c1cc([N+](=O)[O-])ccc1Cl)c1nc2ccccc2[nH]1 |  | inconclusive: 29.1 µM [falling, single point]
Cc1cc(C)nc(SCc2ccc([N+](=O)[O-])cc2)n1 | inconclusive: 3.08% | 
CCCC1=NN(C(=O)Cc2ccc(OC)c(OC)c2)C(O)(C(F)(F)F)C1 (stereo not given) | inactive: 0.268% | 

SMILES | activity change, negative = inhibition | Potency
CCOC(=O)c1c(O)c2ccccc2oc1=O |  | inconclusive: 8.91 µM [falling, partial curve]
Cc1cc(NC(=O)C2CCN(S(=O)(=O)c3cccs3)CC2)no1 | inconclusive: 4.3% | 
O=C(c1cc(COc2ccc(F)c(F)c2)on1)N1CCN(C/C=C/c2ccccc2)CC1 |  | inconclusive: 10 µM [falling, partial curve, poor fit]
O=C(CNC(=O)c1cccc(F)c1)OCC(=O)N1CCCc2ccccc21 | inconclusive: 5.9% | 
O=C(Nc1nc2ccccc2s1)c1ccc(OCC2CCCO2)cc1 (stereo not given) |  | inconclusive: 0.461 µM [rising, full curve]
Nc1ncnc(Nc2ccccn2)c1[N+](=O)[O-] | inconclusive: -15.3% | 
Cc1ccc(C(=O)Nc2ncc(C)s2)s1 | inconclusive: -24% | 
CC(C)(C)c1ccc(OCC(=O)N(c2ccccn2)C2CCCCC2)cc1 | inactive: -0.818% | 
CCN(CC)c1ccc(NC(=O)c2cc(OC)cc(OC)c2)c(C)c1 |  | inconclusive: 16.4 µM [falling, partial curve]
O=C(NCCc1ccccc1)c1noc2c1CCc1ccccc1-2 | inactive: 4.28% | 
CCCn1nnnc1SCC(=O)NNC(=O)C1CCCCC1 | inconclusive: 8.41% | 
N#Cc1cccc(NC(=O)CNc2cccc(S(=O)(=O)N3CCCCC3)c2)c1 | inconclusive: 8.98% | 
N/C(=C\C(=O)c1cc(Cl)ccc1O)C(Cl)(Cl)Cl |  | inconclusive: 11.2 µM [falling, partial curve]
COc1cc(/C=C2\SC(=S)N(C(Cc3ccccc3)C(=O)O)C2=O)ccc1O (stereo not given) | inactive: 21.6% | 
COc1ccc(F)cc1CN1CCN(C(=O)CCC(=O)Nc2nnc(C3CCCCC3)s2)CC1 | inconclusive: -2.39% | 
Clc1ccc2c(c1)CCc1cccnc1C2=C1CCNCC1 | inconclusive: -13.6% | 
O=C(N/N=C/C=C/c1ccc([N+](=O)[O-])cc1)C1COc2ccccc2O1 (stereo not given) | inactive: -0.392% | 
COCCNC(=O)c1cc2c(=O)n3cccc(C)c3nc2n(Cc2ccncc2)c1=N | inactive: -2.62% | 
COc1ccc(-n2ccnc2CN2CCCC(CO)(Cc3cccc(OC)c3)C2)cc1 (stereo not given) | inactive: -1.81% | 
Nc1c(C(=O)NCc2ccco2)c2nc3ccccc3nc2n1CCc1ccccc1F | inconclusive: 6.33% | 

Three compounds drawn at random from the list so far, as already listed:
SMILES | activity change, negative = inhibition | Potency
Cc1cc(NC(=O)C2CCN(S(=O)(=O)c3cccs3)CC2)no1 | inconclusive: 4.3% | 
N/C(=C\C(=O)c1cc(Cl)ccc1O)C(Cl)(Cl)Cl |  | inconclusive: 11.2 µM [falling, partial curve]
CCCn1nnnc1SCC(=O)NNC(=O)C1CCCCC1 | inconclusive: 8.41% | 
